Data reported in paper PMC6345853.
These are yes or no findings as the source states them, for the method shown. In cells and extracts the contact can be indirect. Some binding calls cover weakened binding; strength is not graded here. For some assays here: Sequences can lack the tags named with a protein.

Sequences of proteins named here, by UniProt entry; tags and fusion partners are left off.
UniProt Q93009: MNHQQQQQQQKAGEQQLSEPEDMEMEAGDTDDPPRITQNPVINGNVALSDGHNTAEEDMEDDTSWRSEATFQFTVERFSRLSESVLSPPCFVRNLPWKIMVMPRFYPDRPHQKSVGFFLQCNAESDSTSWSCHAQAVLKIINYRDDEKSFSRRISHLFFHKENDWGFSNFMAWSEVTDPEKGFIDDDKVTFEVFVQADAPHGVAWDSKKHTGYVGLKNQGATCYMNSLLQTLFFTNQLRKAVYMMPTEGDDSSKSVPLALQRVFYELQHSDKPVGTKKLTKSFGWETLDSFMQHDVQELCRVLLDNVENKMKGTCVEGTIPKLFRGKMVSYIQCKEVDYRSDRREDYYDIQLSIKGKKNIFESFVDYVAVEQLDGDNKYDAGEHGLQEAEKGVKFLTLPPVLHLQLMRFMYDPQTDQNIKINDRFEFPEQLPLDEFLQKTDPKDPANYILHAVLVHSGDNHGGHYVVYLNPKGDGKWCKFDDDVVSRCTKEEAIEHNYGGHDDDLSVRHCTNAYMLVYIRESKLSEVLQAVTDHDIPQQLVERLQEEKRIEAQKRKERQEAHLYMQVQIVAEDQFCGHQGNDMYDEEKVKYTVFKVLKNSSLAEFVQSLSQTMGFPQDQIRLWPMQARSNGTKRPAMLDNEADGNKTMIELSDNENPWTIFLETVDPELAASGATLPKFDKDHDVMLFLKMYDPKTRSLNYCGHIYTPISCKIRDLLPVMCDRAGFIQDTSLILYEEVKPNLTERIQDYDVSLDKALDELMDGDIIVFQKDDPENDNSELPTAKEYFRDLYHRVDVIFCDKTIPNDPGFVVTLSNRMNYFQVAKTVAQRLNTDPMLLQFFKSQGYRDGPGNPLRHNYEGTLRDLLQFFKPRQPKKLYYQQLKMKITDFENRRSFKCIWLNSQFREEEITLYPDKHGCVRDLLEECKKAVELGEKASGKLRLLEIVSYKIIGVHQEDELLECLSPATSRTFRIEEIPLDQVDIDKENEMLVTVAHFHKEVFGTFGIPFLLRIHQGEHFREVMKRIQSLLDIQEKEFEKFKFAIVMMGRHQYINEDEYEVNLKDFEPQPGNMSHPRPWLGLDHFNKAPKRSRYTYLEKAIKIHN

T1: Fg-Usp7 (Drosophila) (UniProt Q9VYQ8)
T1 sequence: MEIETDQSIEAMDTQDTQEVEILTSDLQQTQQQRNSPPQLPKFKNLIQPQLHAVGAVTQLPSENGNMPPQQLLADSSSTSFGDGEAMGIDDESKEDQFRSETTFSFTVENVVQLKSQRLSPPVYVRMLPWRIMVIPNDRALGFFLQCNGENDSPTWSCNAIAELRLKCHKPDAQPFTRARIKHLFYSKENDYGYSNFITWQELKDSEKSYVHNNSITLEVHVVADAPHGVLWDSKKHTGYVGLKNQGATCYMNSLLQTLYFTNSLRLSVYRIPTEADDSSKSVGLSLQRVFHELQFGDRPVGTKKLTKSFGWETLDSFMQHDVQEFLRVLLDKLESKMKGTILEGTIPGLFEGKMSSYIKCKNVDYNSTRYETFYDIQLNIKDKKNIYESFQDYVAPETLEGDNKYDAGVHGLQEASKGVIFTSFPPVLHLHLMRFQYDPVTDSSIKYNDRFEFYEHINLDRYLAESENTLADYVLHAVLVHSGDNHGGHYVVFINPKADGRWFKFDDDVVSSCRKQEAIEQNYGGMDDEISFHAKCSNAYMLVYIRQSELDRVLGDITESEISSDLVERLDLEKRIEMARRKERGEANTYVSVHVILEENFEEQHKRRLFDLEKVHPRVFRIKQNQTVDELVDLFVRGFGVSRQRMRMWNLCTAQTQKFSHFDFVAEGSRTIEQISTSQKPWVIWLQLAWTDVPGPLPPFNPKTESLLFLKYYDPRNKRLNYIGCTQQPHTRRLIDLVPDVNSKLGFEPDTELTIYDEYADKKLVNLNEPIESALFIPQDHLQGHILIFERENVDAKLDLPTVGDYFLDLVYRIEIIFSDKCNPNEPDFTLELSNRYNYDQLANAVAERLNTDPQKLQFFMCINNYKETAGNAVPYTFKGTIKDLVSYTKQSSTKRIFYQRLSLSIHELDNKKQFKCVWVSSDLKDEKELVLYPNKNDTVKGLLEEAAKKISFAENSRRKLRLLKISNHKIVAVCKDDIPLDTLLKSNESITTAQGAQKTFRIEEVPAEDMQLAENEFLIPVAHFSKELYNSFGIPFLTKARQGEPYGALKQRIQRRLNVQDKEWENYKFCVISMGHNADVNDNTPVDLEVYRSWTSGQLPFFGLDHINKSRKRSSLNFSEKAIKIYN

T2: Fg-Usp7-CA (Drosophila) (UniProt Q9VYQ8)
T2 sequence: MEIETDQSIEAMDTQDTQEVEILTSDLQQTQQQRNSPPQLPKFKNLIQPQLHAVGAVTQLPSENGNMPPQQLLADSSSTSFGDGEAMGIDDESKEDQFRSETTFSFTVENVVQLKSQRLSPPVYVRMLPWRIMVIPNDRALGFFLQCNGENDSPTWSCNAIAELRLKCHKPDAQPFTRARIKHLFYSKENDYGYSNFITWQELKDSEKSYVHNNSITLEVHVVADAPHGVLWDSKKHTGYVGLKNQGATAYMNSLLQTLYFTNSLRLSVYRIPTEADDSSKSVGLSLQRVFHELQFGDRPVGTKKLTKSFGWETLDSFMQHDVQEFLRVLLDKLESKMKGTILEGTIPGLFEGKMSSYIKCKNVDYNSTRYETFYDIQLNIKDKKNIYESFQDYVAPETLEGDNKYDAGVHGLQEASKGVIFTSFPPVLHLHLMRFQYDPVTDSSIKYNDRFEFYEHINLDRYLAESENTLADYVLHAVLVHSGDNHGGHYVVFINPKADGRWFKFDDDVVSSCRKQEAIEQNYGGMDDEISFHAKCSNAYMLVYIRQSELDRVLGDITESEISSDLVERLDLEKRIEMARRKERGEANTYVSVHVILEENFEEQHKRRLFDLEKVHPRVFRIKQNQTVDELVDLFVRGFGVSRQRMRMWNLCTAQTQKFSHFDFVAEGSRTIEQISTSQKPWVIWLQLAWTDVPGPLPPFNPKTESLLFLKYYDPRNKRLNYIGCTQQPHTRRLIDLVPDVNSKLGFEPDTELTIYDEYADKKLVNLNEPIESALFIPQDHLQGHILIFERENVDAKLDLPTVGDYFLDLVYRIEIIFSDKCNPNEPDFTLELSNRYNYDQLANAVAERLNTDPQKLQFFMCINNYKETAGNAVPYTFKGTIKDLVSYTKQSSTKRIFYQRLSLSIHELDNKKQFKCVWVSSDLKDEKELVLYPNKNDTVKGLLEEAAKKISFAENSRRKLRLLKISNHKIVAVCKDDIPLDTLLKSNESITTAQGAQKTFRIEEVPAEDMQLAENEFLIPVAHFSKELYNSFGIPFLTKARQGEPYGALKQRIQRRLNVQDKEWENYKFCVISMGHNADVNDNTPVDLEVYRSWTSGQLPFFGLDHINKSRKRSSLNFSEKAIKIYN

T3: GST-Usp7 (Drosophila) (UniProt Q9VYQ8)
T3 sequence: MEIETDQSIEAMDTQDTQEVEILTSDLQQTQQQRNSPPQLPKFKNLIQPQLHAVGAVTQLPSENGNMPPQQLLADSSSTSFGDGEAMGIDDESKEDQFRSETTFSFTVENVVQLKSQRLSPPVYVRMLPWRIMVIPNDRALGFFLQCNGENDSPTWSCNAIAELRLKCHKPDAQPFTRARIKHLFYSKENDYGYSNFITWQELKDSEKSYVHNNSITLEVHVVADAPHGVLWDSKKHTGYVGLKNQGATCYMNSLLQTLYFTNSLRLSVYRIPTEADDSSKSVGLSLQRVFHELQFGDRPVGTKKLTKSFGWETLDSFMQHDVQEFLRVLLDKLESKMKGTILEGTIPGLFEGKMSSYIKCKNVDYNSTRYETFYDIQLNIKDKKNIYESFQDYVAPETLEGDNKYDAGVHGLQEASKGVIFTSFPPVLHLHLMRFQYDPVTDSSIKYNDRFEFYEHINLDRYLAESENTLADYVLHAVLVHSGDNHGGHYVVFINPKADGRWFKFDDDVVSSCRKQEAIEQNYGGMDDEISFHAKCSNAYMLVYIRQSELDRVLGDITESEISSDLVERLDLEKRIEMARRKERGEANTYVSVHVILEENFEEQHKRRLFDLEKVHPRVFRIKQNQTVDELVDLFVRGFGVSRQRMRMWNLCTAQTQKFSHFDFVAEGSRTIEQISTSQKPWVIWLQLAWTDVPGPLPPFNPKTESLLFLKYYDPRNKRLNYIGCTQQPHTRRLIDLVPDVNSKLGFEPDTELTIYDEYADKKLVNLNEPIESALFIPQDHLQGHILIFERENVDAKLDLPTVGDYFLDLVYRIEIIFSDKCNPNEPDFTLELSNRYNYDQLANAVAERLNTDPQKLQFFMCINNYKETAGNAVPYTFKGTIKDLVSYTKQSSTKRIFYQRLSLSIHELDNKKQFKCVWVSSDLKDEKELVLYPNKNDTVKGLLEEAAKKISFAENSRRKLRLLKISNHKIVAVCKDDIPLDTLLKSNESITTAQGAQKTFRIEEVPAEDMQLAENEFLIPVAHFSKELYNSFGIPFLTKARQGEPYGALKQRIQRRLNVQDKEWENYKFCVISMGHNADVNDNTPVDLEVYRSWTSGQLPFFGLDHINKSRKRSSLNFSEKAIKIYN

T4: endogenous Yki (Drosophila (endogenous in S2 cells)) (UniProt Q45VV3)
T4 sequence: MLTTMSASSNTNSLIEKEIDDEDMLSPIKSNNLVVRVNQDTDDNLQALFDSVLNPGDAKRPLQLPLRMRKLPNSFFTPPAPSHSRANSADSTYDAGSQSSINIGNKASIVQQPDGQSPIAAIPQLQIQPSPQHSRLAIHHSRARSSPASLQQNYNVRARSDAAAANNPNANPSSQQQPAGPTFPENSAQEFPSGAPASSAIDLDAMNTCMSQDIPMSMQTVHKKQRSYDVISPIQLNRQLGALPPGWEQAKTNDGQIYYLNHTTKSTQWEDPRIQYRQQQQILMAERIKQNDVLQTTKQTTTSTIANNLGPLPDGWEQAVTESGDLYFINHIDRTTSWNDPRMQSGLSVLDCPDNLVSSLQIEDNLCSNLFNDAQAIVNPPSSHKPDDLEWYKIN

B1: Myc-Yki (protein, UniProt Q45VV3 1-395)
chain: MLTTMSASSNTNSLIEKEIDDEDMLSPIKSNNLVVRVNQDTDDNLQALFDSVLNPGDAKRPLQLPLRMRKLPNSFFTPPAPSHSRANSADSTYDAGSQSSINIGNKASIVQQPDGQSPIAAIPQLQIQPSPQHSRLAIHHSRARSSPASLQQNYNVRARSDAAAANNPNANPSSQQQPAGPTFPENSAQEFPSGAPASSAIDLDAMNTCMSQDIPMSMQTVHKKQRSYDVISPIQLNRQLGALPPGWEQAKTNDGQIYYLNHTTKSTQWEDPRIQYRQQQQILMAERIKQNDVLQTTKQTTTSTIANNLGPLPDGWEQAVTESGDLYFINHIDRTTSWNDPRMQSGLSVLDCPDNLVSSLQIEDNLCSNLFNDAQAIVNPPSSHKPDDLEWYKIN
B2: endogenous Usp7 (enzyme, UniProt Q9VYQ8 1-1129)
chain: MEIETDQSIEAMDTQDTQEVEILTSDLQQTQQQRNSPPQLPKFKNLIQPQLHAVGAVTQLPSENGNMPPQQLLADSSSTSFGDGEAMGIDDESKEDQFRSETTFSFTVENVVQLKSQRLSPPVYVRMLPWRIMVIPNDRALGFFLQCNGENDSPTWSCNAIAELRLKCHKPDAQPFTRARIKHLFYSKENDYGYSNFITWQELKDSEKSYVHNNSITLEVHVVADAPHGVLWDSKKHTGYVGLKNQGATCYMNSLLQTLYFTNSLRLSVYRIPTEADDSSKSVGLSLQRVFHELQFGDRPVGTKKLTKSFGWETLDSFMQHDVQEFLRVLLDKLESKMKGTILEGTIPGLFEGKMSSYIKCKNVDYNSTRYETFYDIQLNIKDKKNIYESFQDYVAPETLEGDNKYDAGVHGLQEASKGVIFTSFPPVLHLHLMRFQYDPVTDSSIKYNDRFEFYEHINLDRYLAESENTLADYVLHAVLVHSGDNHGGHYVVFINPKADGRWFKFDDDVVSSCRKQEAIEQNYGGMDDEISFHAKCSNAYMLVYIRQSELDRVLGDITESEISSDLVERLDLEKRIEMARRKERGEANTYVSVHVILEENFEEQHKRRLFDLEKVHPRVFRIKQNQTVDELVDLFVRGFGVSRQRMRMWNLCTAQTQKFSHFDFVAEGSRTIEQISTSQKPWVIWLQLAWTDVPGPLPPFNPKTESLLFLKYYDPRNKRLNYIGCTQQPHTRRLIDLVPDVNSKLGFEPDTELTIYDEYADKKLVNLNEPIESALFIPQDHLQGHILIFERENVDAKLDLPTVGDYFLDLVYRIEIIFSDKCNPNEPDFTLELSNRYNYDQLANAVAERLNTDPQKLQFFMCINNYKETAGNAVPYTFKGTIKDLVSYTKQSSTKRIFYQRLSLSIHELDNKKQFKCVWVSSDLKDEKELVLYPNKNDTVKGLLEEAAKKISFAENSRRKLRLLKISNHKIVAVCKDDIPLDTLLKSNESITTAQGAQKTFRIEEVPAEDMQLAENEFLIPVAHFSKELYNSFGIPFLTKARQGEPYGALKQRIQRRLNVQDKEWENYKFCVISMGHNADVNDNTPVDLEVYRSWTSGQLPFFGLDHINKSRKRSSLNFSEKAIKIYN

How the values were obtained:
[1] = molecular target: Fg-HAUSP (expressed in S2 cells) (human) (UniProt Q93009); assay: co-IP; S2 cells transfected with tagged constructs, harvested 48 h after transfection, IP and immunoblot; in some panels with co-expressed Hpo, Hpo-KD, Wts or Wts-KD
Fg-Usp7 (Drosophila) = molecular target: T1, Fg-Usp7 (Drosophila); assay: as above
Fg-Usp7-CA (Drosophila) = molecular target: T2, Fg-Usp7-CA (Drosophila); assay: as above
GST-Usp7 (Drosophila) = molecular target: T3, GST-Usp7 (Drosophila); assay: pull-down; GST fusion protein-loaded GSH beads incubated with lysates of S2 cells expressing the partner, 4 °C for 2 h, washed three times with PBS, immunoblot; only the target purified
[2] = molecular target: T4, endogenous Yki (Drosophila (endogenous in S2 cells)); assay: co-IP; endogenous proteins from S2 cells, IP and immunoblot

| Binder | binding [1] | binding (Fg-Usp7 (Drosophila)) | binding (Fg-Usp7-CA (Drosophila)) | binding (GST-Usp7 (Drosophila)) | binding [2] |
| --- | --- | --- | --- | --- | --- |
| B1 | binds | binds | binds | binds |  |
| B2 |  |  |  |  | binds |
